Assay results from article PMC10651131.
No constants are given. Whether binding was seen depends on the method and setting. In cells and extracts the contact can be indirect. Some entries that bind do so weakly or less than the wild type. Sequences can lack the tags named with a protein.

How the values were obtained:
[1] = molecular target: T1, serum response factor (SRF), fused to the S10 or S11 GFP fragment (UniProt Q9JM73); assay: split reporter; trimolecular fluorescence complementation (TriFC): GFP (S1 to S9) fragment coexpressed with proteins fused to the S10 or S11 GFP fragments in HEK293T cells, epifluorescence 8 hours after transfection; in some panels an untagged third protein coexpressed
T1 sequence: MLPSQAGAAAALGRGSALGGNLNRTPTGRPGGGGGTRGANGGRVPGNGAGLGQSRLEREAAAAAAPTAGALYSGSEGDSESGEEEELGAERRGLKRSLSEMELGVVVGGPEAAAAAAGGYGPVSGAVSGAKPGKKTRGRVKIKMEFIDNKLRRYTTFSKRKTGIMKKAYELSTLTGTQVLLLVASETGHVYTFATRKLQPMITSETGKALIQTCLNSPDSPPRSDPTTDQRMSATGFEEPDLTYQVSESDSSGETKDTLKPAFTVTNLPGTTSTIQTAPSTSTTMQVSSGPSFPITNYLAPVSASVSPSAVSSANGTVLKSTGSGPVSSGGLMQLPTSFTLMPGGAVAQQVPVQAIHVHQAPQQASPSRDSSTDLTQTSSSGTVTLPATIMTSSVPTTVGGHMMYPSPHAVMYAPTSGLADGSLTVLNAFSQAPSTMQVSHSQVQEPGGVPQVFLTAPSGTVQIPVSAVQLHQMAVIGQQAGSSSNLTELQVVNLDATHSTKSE

[2] = molecular target: T2, tagged SRF for coimmunoprecipitation (UniProt Q9JM73); assay: co-IP; tagged proteins coexpressed two at a time in HEK293T; lysed 24 hours after transfection in Triton X-100 lysis buffer (20 mM Hepes pH 7.5, 150 mM NaCl, 0.5% Triton X-100, 10% glycerol, 1 mM EDTA); pull-down with an HA antibody; blots with HA, Myc or GST antibodies
T2 sequence: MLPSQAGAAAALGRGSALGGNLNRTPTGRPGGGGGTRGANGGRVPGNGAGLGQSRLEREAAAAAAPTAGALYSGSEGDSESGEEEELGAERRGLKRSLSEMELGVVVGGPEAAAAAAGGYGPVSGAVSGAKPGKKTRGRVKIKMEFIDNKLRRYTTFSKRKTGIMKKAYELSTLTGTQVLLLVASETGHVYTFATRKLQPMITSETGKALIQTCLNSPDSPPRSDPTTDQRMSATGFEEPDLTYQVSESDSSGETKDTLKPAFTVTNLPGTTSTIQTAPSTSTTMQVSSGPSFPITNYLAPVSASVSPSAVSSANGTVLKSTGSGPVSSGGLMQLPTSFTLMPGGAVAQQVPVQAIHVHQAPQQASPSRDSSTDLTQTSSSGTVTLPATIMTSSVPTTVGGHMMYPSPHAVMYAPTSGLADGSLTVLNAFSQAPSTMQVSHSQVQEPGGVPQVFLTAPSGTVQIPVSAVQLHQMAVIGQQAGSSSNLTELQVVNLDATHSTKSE

[3] = molecular target: T3, tagged MKL1 for coimmunoprecipitation (UniProt Q8K4J6); assay: co-IP; Bcl6, SRF and MKL1 or MKL2 overexpressed together in HEK293T; MKL1 or MKL2 pulled down; Triton X-100 lysis buffer; blots with HA, Myc or GST antibodies
T3 sequence: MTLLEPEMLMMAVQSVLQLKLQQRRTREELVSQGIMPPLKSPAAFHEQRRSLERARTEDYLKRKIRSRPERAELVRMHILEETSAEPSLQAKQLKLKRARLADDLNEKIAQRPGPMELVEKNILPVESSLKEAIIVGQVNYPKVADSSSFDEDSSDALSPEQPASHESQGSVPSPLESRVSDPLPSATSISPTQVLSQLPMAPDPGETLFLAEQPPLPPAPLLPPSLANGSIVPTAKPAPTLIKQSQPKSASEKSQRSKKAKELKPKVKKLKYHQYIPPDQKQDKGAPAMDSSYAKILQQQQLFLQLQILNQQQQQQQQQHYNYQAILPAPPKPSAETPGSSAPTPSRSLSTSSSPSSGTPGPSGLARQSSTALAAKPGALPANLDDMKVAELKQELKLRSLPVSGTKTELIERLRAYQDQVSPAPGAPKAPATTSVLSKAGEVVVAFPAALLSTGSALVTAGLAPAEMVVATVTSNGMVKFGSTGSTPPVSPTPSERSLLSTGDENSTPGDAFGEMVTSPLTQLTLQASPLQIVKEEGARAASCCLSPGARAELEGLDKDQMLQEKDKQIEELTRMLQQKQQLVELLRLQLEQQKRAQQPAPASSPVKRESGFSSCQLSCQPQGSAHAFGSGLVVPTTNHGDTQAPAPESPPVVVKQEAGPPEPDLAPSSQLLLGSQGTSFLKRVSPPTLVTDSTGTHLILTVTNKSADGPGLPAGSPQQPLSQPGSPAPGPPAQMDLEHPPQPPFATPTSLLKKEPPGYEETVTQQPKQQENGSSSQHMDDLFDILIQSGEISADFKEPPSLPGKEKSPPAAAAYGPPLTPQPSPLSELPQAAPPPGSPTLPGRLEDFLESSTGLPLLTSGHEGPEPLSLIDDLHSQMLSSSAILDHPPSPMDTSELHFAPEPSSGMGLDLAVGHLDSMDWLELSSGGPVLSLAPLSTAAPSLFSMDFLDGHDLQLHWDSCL

[4] = molecular target: T4, MKL2 for coimmunoprecipitation (UniProt P59759); assay: as above
T4 sequence: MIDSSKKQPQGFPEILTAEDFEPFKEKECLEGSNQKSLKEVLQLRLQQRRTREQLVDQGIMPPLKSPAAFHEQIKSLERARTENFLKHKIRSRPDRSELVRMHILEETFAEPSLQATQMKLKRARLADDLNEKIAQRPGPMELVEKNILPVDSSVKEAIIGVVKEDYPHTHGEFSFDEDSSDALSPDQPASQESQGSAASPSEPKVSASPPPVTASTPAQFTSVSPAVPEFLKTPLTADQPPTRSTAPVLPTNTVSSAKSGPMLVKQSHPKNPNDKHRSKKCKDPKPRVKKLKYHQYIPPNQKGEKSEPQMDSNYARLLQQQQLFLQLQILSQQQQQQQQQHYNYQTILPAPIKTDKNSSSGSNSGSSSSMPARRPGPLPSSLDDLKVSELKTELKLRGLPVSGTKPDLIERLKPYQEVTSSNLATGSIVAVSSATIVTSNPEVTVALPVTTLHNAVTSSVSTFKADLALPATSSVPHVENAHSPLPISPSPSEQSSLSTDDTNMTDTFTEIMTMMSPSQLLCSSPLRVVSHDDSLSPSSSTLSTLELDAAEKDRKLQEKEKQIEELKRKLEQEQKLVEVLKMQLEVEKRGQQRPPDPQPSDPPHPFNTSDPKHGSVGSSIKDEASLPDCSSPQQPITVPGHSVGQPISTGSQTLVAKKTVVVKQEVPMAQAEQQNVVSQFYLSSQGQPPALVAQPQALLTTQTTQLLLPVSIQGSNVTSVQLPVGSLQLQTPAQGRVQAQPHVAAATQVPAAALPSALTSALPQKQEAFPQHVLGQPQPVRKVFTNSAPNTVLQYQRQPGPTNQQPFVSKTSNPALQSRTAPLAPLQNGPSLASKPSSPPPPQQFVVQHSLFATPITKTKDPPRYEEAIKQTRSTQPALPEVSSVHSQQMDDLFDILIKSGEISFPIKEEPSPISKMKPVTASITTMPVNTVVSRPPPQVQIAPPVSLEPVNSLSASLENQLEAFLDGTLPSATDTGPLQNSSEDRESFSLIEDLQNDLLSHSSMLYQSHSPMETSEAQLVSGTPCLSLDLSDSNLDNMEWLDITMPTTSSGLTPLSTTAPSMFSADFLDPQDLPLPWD

[5] = substrate: B cell lymphoma 6 (Bcl6), fused to the S10 or S11 GFP fragment (UniProt P41183); assay: split reporter; trimolecular fluorescence complementation (TriFC): GFP (S1 to S9) fragment coexpressed with proteins fused to the S10 or S11 GFP fragments in HEK293T cells, epifluorescence 8 hours after transfection; in some panels an untagged third protein coexpressed

Bcl6, untagged, overexpressed as third protein in the TriFC assay (from UniProt P41183 1-707)
binding [1]: binds

tagged Bcl6 for coimmunoprecipitation (from UniProt P41183 1-707)
binding [2]: binds

B1: tagged SRF for coimmunoprecipitation (protein, UniProt Q9JM73 1-504)
chain: MLPSQAGAAAALGRGSALGGNLNRTPTGRPGGGGGTRGANGGRVPGNGAGLGQSRLEREAAAAAAPTAGALYSGSEGDSESGEEEELGAERRGLKRSLSEMELGVVVGGPEAAAAAAGGYGPVSGAVSGAKPGKKTRGRVKIKMEFIDNKLRRYTTFSKRKTGIMKKAYELSTLTGTQVLLLVASETGHVYTFATRKLQPMITSETGKALIQTCLNSPDSPPRSDPTTDQRMSATGFEEPDLTYQVSESDSSGETKDTLKPAFTVTNLPGTTSTIQTAPSTSTTMQVSSGPSFPITNYLAPVSASVSPSAVSSANGTVLKSTGSGPVSSGGLMQLPTSFTLMPGGAVAQQVPVQAIHVHQAPQQASPSRDSSTDLTQTSSSGTVTLPATIMTSSVPTTVGGHMMYPSPHAVMYAPTSGLADGSLTVLNAFSQAPSTMQVSHSQVQEPGGVPQVFLTAPSGTVQIPVSAVQLHQMAVIGQQAGSSSNLTELQVVNLDATHSTKSE
binding [3]: binds | binding [4]: binds

B2: megakaryoblastic leukemia 2 (MKL2), fused to the S10 or S11 GFP fragment (protein, UniProt P59759 1-1080)
chain: MIDSSKKQPQGFPEILTAEDFEPFKEKECLEGSNQKSLKEVLQLRLQQRRTREQLVDQGIMPPLKSPAAFHEQIKSLERARTENFLKHKIRSRPDRSELVRMHILEETFAEPSLQATQMKLKRARLADDLNEKIAQRPGPMELVEKNILPVDSSVKEAIIGVVKEDYPHTHGEFSFDEDSSDALSPDQPASQESQGSAASPSEPKVSASPPPVTASTPAQFTSVSPAVPEFLKTPLTADQPPTRSTAPVLPTNTVSSAKSGPMLVKQSHPKNPNDKHRSKKCKDPKPRVKKLKYHQYIPPNQKGEKSEPQMDSNYARLLQQQQLFLQLQILSQQQQQQQQQHYNYQTILPAPIKTDKNSSSGSNSGSSSSMPARRPGPLPSSLDDLKVSELKTELKLRGLPVSGTKPDLIERLKPYQEVTSSNLATGSIVAVSSATIVTSNPEVTVALPVTTLHNAVTSSVSTFKADLALPATSSVPHVENAHSPLPISPSPSEQSSLSTDDTNMTDTFTEIMTMMSPSQLLCSSPLRVVSHDDSLSPSSSTLSTLELDAAEKDRKLQEKEKQIEELKRKLEQEQKLVEVLKMQLEVEKRGQQRPPDPQPSDPPHPFNTSDPKHGSVGSSIKDEASLPDCSSPQQPITVPGHSVGQPISTGSQTLVAKKTVVVKQEVPMAQAEQQNVVSQFYLSSQGQPPALVAQPQALLTTQTTQLLLPVSIQGSNVTSVQLPVGSLQLQTPAQGRVQAQPHVAAATQVPAAALPSALTSALPQKQEAFPQHVLGQPQPVRKVFTNSAPNTVLQYQRQPGPTNQQPFVSKTSNPALQSRTAPLAPLQNGPSLASKPSSPPPPQQFVVQHSLFATPITKTKDPPRYEEAIKQTRSTQPALPEVSSVHSQQMDDLFDILIKSGEISFPIKEEPSPISKMKPVTASITTMPVNTVVSRPPPQVQIAPPVSLEPVNSLSASLENQLEAFLDGTLPSATDTGPLQNSSEDRESFSLIEDLQNDLLSHSSMLYQSHSPMETSEAQLVSGTPCLSLDLSDSNLDNMEWLDITMPTTSSGLTPLSTTAPSMFSADFLDPQDLPLPWD
binding [5]: no binding | binding [1]: binds

B3: serum response factor (SRF), fused to the S10 or S11 GFP fragment (protein, UniProt Q9JM73 1-504)
chain: MLPSQAGAAAALGRGSALGGNLNRTPTGRPGGGGGTRGANGGRVPGNGAGLGQSRLEREAAAAAAPTAGALYSGSEGDSESGEEEELGAERRGLKRSLSEMELGVVVGGPEAAAAAAGGYGPVSGAVSGAKPGKKTRGRVKIKMEFIDNKLRRYTTFSKRKTGIMKKAYELSTLTGTQVLLLVASETGHVYTFATRKLQPMITSETGKALIQTCLNSPDSPPRSDPTTDQRMSATGFEEPDLTYQVSESDSSGETKDTLKPAFTVTNLPGTTSTIQTAPSTSTTMQVSSGPSFPITNYLAPVSASVSPSAVSSANGTVLKSTGSGPVSSGGLMQLPTSFTLMPGGAVAQQVPVQAIHVHQAPQQASPSRDSSTDLTQTSSSGTVTLPATIMTSSVPTTVGGHMMYPSPHAVMYAPTSGLADGSLTVLNAFSQAPSTMQVSHSQVQEPGGVPQVFLTAPSGTVQIPVSAVQLHQMAVIGQQAGSSSNLTELQVVNLDATHSTKSE
binding [1]: binds

B4: SRF, untagged, overexpressed as third protein in the TriFC assay (protein, UniProt Q9JM73 1-504)
chain: MLPSQAGAAAALGRGSALGGNLNRTPTGRPGGGGGTRGANGGRVPGNGAGLGQSRLEREAAAAAAPTAGALYSGSEGDSESGEEEELGAERRGLKRSLSEMELGVVVGGPEAAAAAAGGYGPVSGAVSGAKPGKKTRGRVKIKMEFIDNKLRRYTTFSKRKTGIMKKAYELSTLTGTQVLLLVASETGHVYTFATRKLQPMITSETGKALIQTCLNSPDSPPRSDPTTDQRMSATGFEEPDLTYQVSESDSSGETKDTLKPAFTVTNLPGTTSTIQTAPSTSTTMQVSSGPSFPITNYLAPVSASVSPSAVSSANGTVLKSTGSGPVSSGGLMQLPTSFTLMPGGAVAQQVPVQAIHVHQAPQQASPSRDSSTDLTQTSSSGTVTLPATIMTSSVPTTVGGHMMYPSPHAVMYAPTSGLADGSLTVLNAFSQAPSTMQVSHSQVQEPGGVPQVFLTAPSGTVQIPVSAVQLHQMAVIGQQAGSSSNLTELQVVNLDATHSTKSE
binding [5]: binds
